Measured data: PubChem BioAssay AID504793 (Drosophila RNAi Screening Center, 2011)

- Assay: 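Genes required for cells to halt at G2/M after double-strand DNA breaks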 (primary screen)
- System: Drosophila S2R+ cells
- Reagent: long dsRNA against Drosophila genes, about 0.25 µg dsRNA per well
- Time to read-out: 4 days of dsRNA, then 4 hours of drug before read-out
- Challenge: doxorubicin 0.5 µM for 4 hours to cause double-strand breaks, in cells also given a low, harmless dose of dsRNA against nbs to sensitise the assay
- Measured: 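Mitotic index as the number of phospho-histone H3-positive cells in each well following doxorubicin, given as raw counts without normalisation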
- Reading the numbers: mitotic cells: higher = more cells in mitosis, weaker G2 arrest
- Hit rule: 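Genes are called active only when high mitotic counts were reproduced with independent dsRNAs and mitosis was checked for delay without damage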
- Calls: active = confirmed in follow-up tests; inactive = not confirmed
In all, the deposit lists about 23,000 reagents; this is a random part of those that have a named target and a result. Over the whole deposit, 62 (0.27%) are marked active. 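Calls come from follow-up tests whose scores are not deposited, so confirmed genes may have low counts here; counts are not normalised per plate.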 Raw values are not corrected between plates. Names joined by + are all predicted targets of the reagent.

gene,dsRNA,"mitotic cells, replicate 1","mitotic cells, replicate 2",Outcome
CG3528,DRSC00611,4,,inactive
CG3528,DRSC26034,8,,inactive
brk,DRSC23036,11,,inactive
brk,DRSC27320,4,,inactive
inaF-B + inaF-D + inaF-C + 1 more,DRSC20342,15,,inactive
inaF-B + inaF-D + inaF-C + 1 more,DRSC28607,3,,inactive
Targ1,DRSC11616,1,,inactive
Rpt6R,DRSC15431,8,,inactive
CG31457,DRSC22935,16,,inactive
CG31457,DRSC29229,4,,inactive
CG14321,DRSC14800,,,inactive
CG14321,DRSC26935,6,,inactive
Vajk3,DRSC01883,3,,inactive
Vajk3,DRSC25405,8,,inactive
CG32563,DRSC19934,8,,inactive
CG32563,DRSC29716,8,,inactive
CG31441,DRSC15723,9,,inactive
CG31441,DRSC27463,8,,inactive
vret,DRSC15640,9,,inactive
hook,DRSC03545,5,,inactive
CatB,DRSC03194,5,,inactive
CatB,DRSC24516,9,,inactive
NLaz,DRSC21521,14,,inactive
CG17234,DRSC00490,6,,inactive
CG15059,DRSC19633,10,,inactive
CG15059,DRSC28667,4,,inactive
CG13160,DRSC06284,8,,inactive
lectin-21Cb,DRSC00355,1,,inactive
Vha68-3,DRSC02809,11,,inactive
Vha68-3,DRSC25742,3,,inactive
fws,DRSC02969,8,,inactive
fws,DRSC29678,7,,inactive
CG31365,DRSC15610,15,,inactive
SoxN,DRSC03440,14,,inactive
SoxN,DRSC24984,,,inactive
mof,DRSC18795,16,,inactive
mof,DRSC24125,7,,inactive

Targets listed so far whose target name starts with V or v:
gene,dsRNA,"mitotic cells, replicate 1","mitotic cells, replicate 2",Outcome
Vajk3,DRSC01883,3,,inactive
Vajk3,DRSC25405,8,,inactive
vret,DRSC15640,9,,inactive
Vha68-3,DRSC02809,11,,inactive
Vha68-3,DRSC25742,3,,inactive

Additional entries:
gene,dsRNA,"mitotic cells, replicate 1","mitotic cells, replicate 2",Outcome
CG15927,DRSC19742,12,,inactive
CG15927,DRSC28678,3,,inactive
CG5357 (retired record),DRSC04497,4,,inactive
CG5357 (retired record),DRSC25149,8,,inactive
Prx2,DRSC20256,11,,inactive
Prx2,DRSC29996,4,,inactive
Elal,DRSC16662,3,,inactive
CanA1,DRSC16600,7,,inactive
CanA1,DRSC25868,5,,inactive
CG12129,DRSC06105,2,,inactive
CG13643,DRSC14641,9,,inactive
CG13643,DRSC14642,9,,inactive
CG13643,DRSC28349,10,,inactive
CG9970,DRSC08644,8,,inactive
Cpr5C,DRSC18340,11,13,inactive
CG3703,DRSC18172,13,,inactive
CG3703,DRSC18173,14,,inactive
CG3703,DRSC18643,11,,inactive
CG6574,DRSC16070,14,,inactive
loaf,DRSC09130,9,,inactive
EMRE,DRSC06686,2,,inactive
Sec6,DRSC06932,5,,inactive
Ak2,DRSC04043,9,,inactive
POSH,DRSC07499,9,,inactive
CG4294,DRSC04460,7,,inactive
CG4520,DRSC15590,2,,inactive
CG4520,DRSC26216,10,,inactive
Blm + CG14721,DRSC14943,2,,inactive
mthl11,DRSC12779,3,,inactive
mthl11,DRSC28437,7,,inactive
ND-B12,DRSC04060,8,,inactive
PGRP-SC1a + PGRP-SC1b,DRSC25294,3,,inactive
CG32511 (retired record),DRSC20697,10,,inactive
Shaw,DRSC00433,1,,inactive
Shaw,DRSC00788,13,,inactive
Shaw,DRSC21368,13,,inactive
BubR1,DRSC04838,10,,inactive
CG6766,DRSC02991,6,9,inactive
Inx5,DRSC20051,5,,inactive
cyp33,DRSC07600,5,,inactive
CG14342,DRSC00372,4,,inactive
CG14342,DRSC25128,7,,inactive
Not11,DRSC04204,10,,inactive
Oga,DRSC15901,9,,inactive
CG32163,DRSC09442,4,,inactive
CG32163,DRSC28736,4,,inactive
Pfas,DRSC03480,2,,inactive
CG33229,DRSC07863,21,,inactive
CG33229,DRSC24581,3,,inactive
tko,DRSC18844,9,,inactive
tko,DRSC27125,7,,inactive
CLIP-190,DRSC03283,3,,inactive
CLIP-190,DRSC30075,1,,inactive
toe,DRSC09174,17,,inactive
CG7252,DRSC10789,3,,inactive
CG7252,DRSC21492,4,,inactive
CG14327,DRSC14806,8,,inactive
CG18258,DRSC19798,6,,inactive
CG18258,DRSC29203,3,,inactive
GstT4,DRSC19757,3,,inactive
Fbl6,DRSC06335,10,,inactive
Fbl6,DRSC24271,8,,inactive
rtp,DRSC12132,4,,inactive
CG15820,DRSC08480,2,,inactive
CG15820,DRSC27847,8,,inactive
CG33490,DRSC10587,4,,inactive
CG34253,DRSC09531,7,,inactive
Dhrs4,DRSC09773,7,,inactive
Ubc87F,DRSC16513,2,,inactive
Ubc87F,DRSC29083,3,,inactive
mdy,DRSC01559,12,,inactive
mdy,DRSC02250,6,,inactive
CG31041,DRSC13951,10,,inactive
